Test results taken from article PMC5339724.
No constants are given. Whether binding was seen depends on the method and setting. In cells and extracts the contact can be indirect. Some results given as binding are weak or reduced against the parent protein; the word gives no strength. For part of these data: Sequences can lack the tags named with a protein.

By UniProt entry, the sequences of proteins in these tests, tags left out. Where a name states a change or a piece, a line headed by the entry shows the natural chain unless it says otherwise.
UniProt Q9Y5X1: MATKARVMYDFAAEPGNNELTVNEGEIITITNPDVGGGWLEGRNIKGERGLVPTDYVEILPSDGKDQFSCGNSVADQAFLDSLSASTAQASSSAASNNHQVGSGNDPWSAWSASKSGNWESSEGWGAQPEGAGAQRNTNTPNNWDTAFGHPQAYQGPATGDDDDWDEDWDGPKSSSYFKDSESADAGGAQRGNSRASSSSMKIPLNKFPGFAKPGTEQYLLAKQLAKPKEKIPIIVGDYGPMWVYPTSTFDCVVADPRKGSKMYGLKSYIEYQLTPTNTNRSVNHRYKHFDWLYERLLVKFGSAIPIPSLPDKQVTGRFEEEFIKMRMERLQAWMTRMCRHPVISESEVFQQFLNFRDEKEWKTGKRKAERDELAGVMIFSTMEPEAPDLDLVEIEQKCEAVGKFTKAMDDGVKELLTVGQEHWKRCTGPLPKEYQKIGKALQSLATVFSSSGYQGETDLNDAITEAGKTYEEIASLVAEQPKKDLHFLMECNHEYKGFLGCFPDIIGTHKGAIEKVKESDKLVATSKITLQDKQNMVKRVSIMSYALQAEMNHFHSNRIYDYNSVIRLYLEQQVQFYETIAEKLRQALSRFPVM

What was measured:
FLAG-tagged podocin = biological target: T1, FLAG-tagged podocin (UniProt Q9NP85); experiment: co-IP; HEK293T cells co-transfected with FLAG-podocin and GFP-SNX9 constructs; lysate in 50 mM Tris pH 7.5, 150 mM NaCl, 1.0% Triton X100; anti-FLAG-M2 agarose overnight at 4 °C; blot with anti-GFP and anti-FLAG
T1 sequence: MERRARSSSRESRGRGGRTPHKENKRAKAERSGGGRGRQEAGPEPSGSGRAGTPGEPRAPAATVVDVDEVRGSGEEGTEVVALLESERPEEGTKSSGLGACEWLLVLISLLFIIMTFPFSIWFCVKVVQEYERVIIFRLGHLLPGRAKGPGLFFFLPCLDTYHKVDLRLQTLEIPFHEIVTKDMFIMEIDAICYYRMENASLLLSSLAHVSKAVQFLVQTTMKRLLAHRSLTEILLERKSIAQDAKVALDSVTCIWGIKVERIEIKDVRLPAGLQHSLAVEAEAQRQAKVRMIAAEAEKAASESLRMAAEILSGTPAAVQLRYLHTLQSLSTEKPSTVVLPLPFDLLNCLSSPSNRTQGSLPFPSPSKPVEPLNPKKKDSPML

[1] = biological target: T2, endogenous podocin of ADR-treated cultured human podocytes (human (endogenous in cultured human podocytes)) (UniProt Q9NP85); experiment: co-IP; endogenous proteins from lysates of cultured human podocytes treated with 0.2 μg/ml ADR for 6 h, then 48 h ADR-free; polyclonal anti-podocin, anti-SNX9 and anti-GFP (negative control) antibodies
T2 sequence: T1 sequence

| binding (FLAG-tagged podocin) | binding [1] | Substance |
| --- | --- | --- |
| binds | – | GFP-SNX9-BAR (from UniProt Q9Y5X1 392-595) (domain or fragment) |
| – | binds | endogenous SNX9 of ADR-treated cultured human podocytes (from UniProt Q9Y5X1 1-595) |
| binds | – | GFP-SNX9 (from UniProt Q9Y5X1 1-595) |
